Taken from: PubChem BioAssay AID602196 (INSERM, 2012)
The deposit covers about 23,000 reagents; below is a random part of them. In the full data, 455 (2%) were called active. 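Active includes both protection and sensitisation; some change values fall well beyond the stated -50 to +50 range.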 Further read-outs or replicates are left out here. Not stated in the record: the amount of reagent.

Screen: 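Modifiers of cisplatin sensitivity in A549 cells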
Cells: human A549 lung cancer cells
Knock-down reagent: siRNA pair against human genes
Time to read-out: 48 h transfection before cisplatin; time from cisplatin to read-out not stated
Conditions: cisplatin at a dose killing half of control-siRNA cells; exact dose and duration not given
Measurement: 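Cisplatin cell death as a shift from the 50% death seen with control siRNA; siRNAs toxic or growth-blocking alone scored 0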
Direction: two-siRNA summed score (-2 to +2): higher = both siRNAs protect from cisplatin killing; -2 means both sensitise; mean protection from cisplatin (shift in death): higher = protection from cisplatin killing
Call rule: 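Each siRNA scores 0 if harmful alone by LDH or WST-1, otherwise +1 if it reduces and -1 if it increases cisplatin killing; a gene is active when both siRNAs agree (sum +2 or -2)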
Meaning of the calls: active = both siRNAs shift cisplatin killing the same way; inactive = no consistent shift, or siRNA harmful alone

What is on record for LOC392666?
two-siRNA summed score (-2 to +2): 0; mean protection from cisplatin (shift in death) (%): -2.3; Outcome: inactive

For RPL35 (GeneID 11224), how do the results read?
two-siRNA summed score (-2 to +2): 0; mean protection from cisplatin (shift in death) (%): 2.6; Outcome: inactive

For KMT2B (GeneID 9757), what was measured?
two-siRNA summed score (-2 to +2): 0; mean protection from cisplatin (shift in death) (%): -7.1; Outcome: inactive

How did the screen score KLHL40 (GeneID 131377)?
two-siRNA summed score (-2 to +2): 0; mean protection from cisplatin (shift in death) (%): 0.3; Outcome: inactive

For FMOD (GeneID 2331), what does the deposit list?
two-siRNA summed score (-2 to +2): 1; mean protection from cisplatin (shift in death) (%): 9.3; Outcome: inactive

For LOC440331, how do the results read?
two-siRNA summed score (-2 to +2): 0; mean protection from cisplatin (shift in death) (%): 5.8; Outcome: inactive

How did the screen score ADSS2 (GeneID 159)?
two-siRNA summed score (-2 to +2): 0; mean protection from cisplatin (shift in death) (%): 0.8; Outcome: inactive

For MYBPC2 (GeneID 4606), what was measured?
two-siRNA summed score (-2 to +2): 0; mean protection from cisplatin (shift in death) (%): 12; Outcome: inactive

For PSPC1 (GeneID 55269), what does the deposit list?
two-siRNA summed score (-2 to +2): -1; mean protection from cisplatin (shift in death) (%): -8.4; Outcome: inactive

For TRAIP (GeneID 10293), what does the deposit list?
two-siRNA summed score (-2 to +2): 0; mean protection from cisplatin (shift in death) (%): -6.4; Outcome: inactive

With ST8SIA2 (GeneID 8128), how do the results read?
two-siRNA summed score (-2 to +2): -1; mean protection from cisplatin (shift in death) (%): -7.6; Outcome: inactive

What is on record for MAP3K21 (GeneID 84451)?
two-siRNA summed score (-2 to +2): 1; mean protection from cisplatin (shift in death) (%): 22.6; Outcome: inactive

What is on record for ADAM32 (GeneID 203102)?
two-siRNA summed score (-2 to +2): 0; mean protection from cisplatin (shift in death) (%): 2.3; Outcome: inactive

What did the screen give for GZMH (GeneID 2999)?
two-siRNA summed score (-2 to +2): 1; mean protection from cisplatin (shift in death) (%): 14.5; Outcome: inactive

What did the screen give for OR4D10 (GeneID 390197)?
two-siRNA summed score (-2 to +2): 1; mean protection from cisplatin (shift in death) (%): 14.6; Outcome: inactive

What is on record for RNF208 (GeneID 727800)?
two-siRNA summed score (-2 to +2): 0; mean protection from cisplatin (shift in death) (%): 9.7; Outcome: inactive

For SP8 (GeneID 221833), how do the results read?
two-siRNA summed score (-2 to +2): 1; mean protection from cisplatin (shift in death) (%): 15.4; Outcome: inactive

Which result is listed for ANKK1 (GeneID 255239)?
two-siRNA summed score (-2 to +2): 0; mean protection from cisplatin (shift in death) (%): -0.8; Outcome: inactive

What did the screen give for NME9 (GeneID 347736)?
two-siRNA summed score (-2 to +2): 0; mean protection from cisplatin (shift in death) (%): 3.6; Outcome: inactive

For NKX3-1 (GeneID 4824), what does the deposit list?
two-siRNA summed score (-2 to +2): 0; mean protection from cisplatin (shift in death) (%): -0.5; Outcome: inactive

What did the screen give for SP140 (GeneID 11262)?
two-siRNA summed score (-2 to +2): 0; mean protection from cisplatin (shift in death) (%): -8.5; Outcome: inactive

For LOC400725, what was measured?
two-siRNA summed score (-2 to +2): 0; mean protection from cisplatin (shift in death) (%): 4.5; Outcome: inactive

For LAMC3 (GeneID 10319), what was measured?
two-siRNA summed score (-2 to +2): 1; mean protection from cisplatin (shift in death) (%): 12.8; Outcome: inactive

What is on record for LOC439957?
two-siRNA summed score (-2 to +2): 0; mean protection from cisplatin (shift in death) (%): 10.6; Outcome: inactive

For CLCN3 (GeneID 1182), how do the results read?
two-siRNA summed score (-2 to +2): -2; mean protection from cisplatin (shift in death) (%): -16.2; Outcome: active

With TMC4 (GeneID 147798), what does the deposit list?
two-siRNA summed score (-2 to +2): 0; mean protection from cisplatin (shift in death) (%): 22.4; Outcome: inactive

What is on record for PAK5 (GeneID 57144)?
two-siRNA summed score (-2 to +2): 1; mean protection from cisplatin (shift in death) (%): 9.6; Outcome: inactive

What did the screen give for APOC3 (GeneID 345)?
two-siRNA summed score (-2 to +2): 0; mean protection from cisplatin (shift in death) (%): -1.8; Outcome: inactive

What is on record for LOC202546?
two-siRNA summed score (-2 to +2): 1; mean protection from cisplatin (shift in death) (%): 40.8; Outcome: inactive

With H3-3B (GeneID 3021), what does the deposit list?
two-siRNA summed score (-2 to +2): 0; mean protection from cisplatin (shift in death) (%): 26.2; Outcome: inactive

Which result is listed for MLX (GeneID 6945)?
two-siRNA summed score (-2 to +2): 0; mean protection from cisplatin (shift in death) (%): 3.9; Outcome: inactive

Quoted from the entries so far (4 entries):
SP140 (GeneID 11262): two-siRNA summed score (-2 to +2) = 0; mean protection from cisplatin (shift in death) (%) = -8.5; Outcome = inactive
LOC400725: two-siRNA summed score (-2 to +2) = 0; mean protection from cisplatin (shift in death) (%) = 4.5; Outcome = inactive
LAMC3 (GeneID 10319): two-siRNA summed score (-2 to +2) = 1; mean protection from cisplatin (shift in death) (%) = 12.8; Outcome = inactive
LOC439957: two-siRNA summed score (-2 to +2) = 0; mean protection from cisplatin (shift in death) (%) = 10.6; Outcome = inactive
